PubChem BioAssay AID652272 – Drosophila RNAi Screening Center | 2013
Purpose: 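Genes whose knock-down decreases or increases Hedgehog reporter output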 (primary screen). Cell system: Drosophila clone 8 (Cl8) cells. Knock-down reagent: long dsRNA against Drosophila genes. Read-out: 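Plate reader light from a firefly reporter under a ptc promoter fragment that responds to Hedgehog, with Renilla light as transfection reference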. Direction: firefly Hh reporter signal: higher = more ptc reporter light; Renilla reference signal: higher = more Renilla control light. Hit rule: 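Called a hit if the two-replicate mean z-score lies below -2 or above +3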. Calls: active = hit: reporter lowered or raised; inactive = not a hit.
The deposit covers about 21,000 reagents; shown is an unselected part of those with a known target gene and a result. Over the whole deposit, 503 (2.4%) are marked active. 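Raw plate light values, not normalised; calls rest on replicate z-scores that were not deposited; hits include reporter decreases as well as increases.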 Reagents against one gene are numbered here. No sequences are given here. The record does not give: the amount of reagent, the time to read-out.

For CG3776, the values are firefly Hh reporter signal, replicate 1 = 70304; firefly Hh reporter signal, replicate 2 = 79691; Renilla reference signal, replicate 1 = 2054; Renilla reference signal, replicate 2 = 3122; inactive.
Against CG3281 the deposit lists firefly Hh reporter signal, replicate 1 = 1.71e5; firefly Hh reporter signal, replicate 2 = 1.35e5; Renilla reference signal, replicate 1 = 7254; Renilla reference signal, replicate 2 = 5005; inactive.
Silencing of PQBP1 (Poly-glutamine tract binding protein 1) resulted in: firefly Hh reporter signal, replicate 1 = 89333; firefly Hh reporter signal, replicate 2 = 54487; Renilla reference signal, replicate 1 = 3947; Renilla reference signal, replicate 2 = 1139; inactive.
ago (archipelago) scored firefly Hh reporter signal, replicate 1 = 1.53e5; firefly Hh reporter signal, replicate 2 = 71290; Renilla reference signal, replicate 1 = 6813; Renilla reference signal, replicate 2 = 3477; inactive.
cutlet showed firefly Hh reporter signal, replicate 1 = 2.19e5; firefly Hh reporter signal, replicate 2 = 86075; Renilla reference signal, replicate 1 = 5541; Renilla reference signal, replicate 2 = 8344; inactive.
With knock-down of Mct1 (Monocarboxylate transporter 1), the record shows firefly Hh reporter signal, replicate 1 = 82521; firefly Hh reporter signal, replicate 2 = 1.76e5; Renilla reference signal, replicate 1 = 3328; Renilla reference signal, replicate 2 = 6897; inactive.
Knock-down of Smox (Smad on X) gave: firefly Hh reporter signal, replicate 1 = 88552; firefly Hh reporter signal, replicate 2 = 2.25e5; Renilla reference signal, replicate 1 = 2836; Renilla reference signal, replicate 2 = 7153; inactive.
Lcp1Psi (Larval cuticle protein 1 pseudogene) scored firefly Hh reporter signal, replicate 1 = 91797; firefly Hh reporter signal, replicate 2 = 3.34e5; Renilla reference signal, replicate 1 = 741; Renilla reference signal, replicate 2 = 14240; inactive.
Hpr1 gave firefly Hh reporter signal, replicate 1 = 84507; firefly Hh reporter signal, replicate 2 = 95500; Renilla reference signal, replicate 1 = 4960; Renilla reference signal, replicate 2 = 4405; inactive.
Against cpb (capping protein beta), the values are firefly Hh reporter signal, replicate 1 = 1.14e5; firefly Hh reporter signal, replicate 2 = 96480; Renilla reference signal, replicate 1 = 3810; Renilla reference signal, replicate 2 = 3974; inactive.
Knock-down of CG13794 came out at: firefly Hh reporter signal, replicate 1 = 1.02e5; firefly Hh reporter signal, replicate 2 = 42512; Renilla reference signal, replicate 1 = 1785; Renilla reference signal, replicate 2 = 3863; inactive.
Against Atg16 (Autophagy-related 16) #1, the entry reads firefly Hh reporter signal, replicate 1 = 90352; firefly Hh reporter signal, replicate 2 = 96626; Renilla reference signal, replicate 1 = 1162; Renilla reference signal, replicate 2 = 2928; inactive.
Against Atg16 (Autophagy-related 16) #2 the deposit lists firefly Hh reporter signal, replicate 1 = 69203; firefly Hh reporter signal, replicate 2 = 1.04e5; Renilla reference signal, replicate 1 = 2060; Renilla reference signal, replicate 2 = 6448; inactive.
Against Atg16 (Autophagy-related 16) #3, the entry reads firefly Hh reporter signal, replicate 1 = 84169; firefly Hh reporter signal, replicate 2 = 1.48e5; Renilla reference signal, replicate 1 = 2496; Renilla reference signal, replicate 2 = 6477; inactive.
Depletion of CG18823 gave: firefly Hh reporter signal, replicate 1 = 71304; firefly Hh reporter signal, replicate 2 = 1.60e5; Renilla reference signal, replicate 1 = 1540; Renilla reference signal, replicate 2 = 6070; inactive.
With knock-down of Set, the screen gave firefly Hh reporter signal, replicate 1 = 1.09e5; firefly Hh reporter signal, replicate 2 = 82999; Renilla reference signal, replicate 1 = 4209; Renilla reference signal, replicate 2 = 2964; inactive.
Knock-down of fz (frizzled) resulted in: firefly Hh reporter signal, replicate 1 = 71792; Renilla reference signal, replicate 1 = 3456; Renilla reference signal, replicate 2 = 2076; inactive.
CG42355 scored firefly Hh reporter signal, replicate 1 = 66288; firefly Hh reporter signal, replicate 2 = 1.24e5; Renilla reference signal, replicate 1 = 2640; Renilla reference signal, replicate 2 = 7366; active.
After knock-down of CG14315, the screen gave firefly Hh reporter signal, replicate 1 = 5.18e5; firefly Hh reporter signal, replicate 2 = 72688; Renilla reference signal, replicate 1 = 26346; Renilla reference signal, replicate 2 = 1830; inactive.
After knock-down of nrv3 (nervana 3) the results were firefly Hh reporter signal, replicate 1 = 6.11e5; firefly Hh reporter signal, replicate 2 = 1.23e5; Renilla reference signal, replicate 1 = 5416; Renilla reference signal, replicate 2 = 5416; inactive.
For cher (cheerio), the values are firefly Hh reporter signal, replicate 1 = 1.18e5; firefly Hh reporter signal, replicate 2 = 98499; Renilla reference signal, replicate 1 = 5033; Renilla reference signal, replicate 2 = 4203; inactive.

Quoted from above, 3 entries:
CG14315 | firefly Hh reporter signal, replicate 1: 5.18e5; firefly Hh reporter signal, replicate 2: 72688; Renilla reference signal, replicate 1: 26346; Renilla reference signal, replicate 2: 1830; Outcome: inactive
nrv3 (nervana 3) | firefly Hh reporter signal, replicate 1: 6.11e5; firefly Hh reporter signal, replicate 2: 1.23e5; Renilla reference signal, replicate 1: 5416; Renilla reference signal, replicate 2: 5416; Outcome: inactive
cher (cheerio) | firefly Hh reporter signal, replicate 1: 1.18e5; firefly Hh reporter signal, replicate 2: 98499; Renilla reference signal, replicate 1: 5033; Renilla reference signal, replicate 2: 4203; Outcome: inactive
